Assay [1] deals with Myc epitope-tagged wild-type XIAP (Homo sapiens (Human)) (UniProt P98170). Nature of the assay: GST-ARTS pull-down from lysate of COS-7 cells transfected with myc-tagged XIAP, Western blot (FIG. 3A-B).
The target is the same in assay [2]. The assay is described as follows: GST-ARTS pull-down from lysate of COS-7 cells transfected with mycXIAP, Western blot.
The target in assay [3] is GST-XIAP fusion protein (Homo sapiens (Human)) (UniProt P98170). The assay is described as follows: GST-XIAP pull-down from lysate of COS-7 cells transfected with AU5-ARTS, Western blot with anti-AU5 (FIG. 3C).
For assay [4] the target is unchanged. Nature of the assay: GST-XIAP pull-down from lysate of COS-7 cells transfected with AU5-ARTS, Western blot.
Assay [5] shares this target. Nature of the assay: GST-XIAP pull-down of in vitro translated ARTS, Western blot with anti-ARTS; GST alone as negative control.
Assay [6] has the same target. Nature of the assay: GST-XIAP pull-down of in vitro translated ARTS, Western blot.

By UniProt entry, the sequences of proteins in these tests, tags left out. Where a name states a change or a piece, a line headed by the entry shows the natural chain unless it says otherwise.
UniProt P98170: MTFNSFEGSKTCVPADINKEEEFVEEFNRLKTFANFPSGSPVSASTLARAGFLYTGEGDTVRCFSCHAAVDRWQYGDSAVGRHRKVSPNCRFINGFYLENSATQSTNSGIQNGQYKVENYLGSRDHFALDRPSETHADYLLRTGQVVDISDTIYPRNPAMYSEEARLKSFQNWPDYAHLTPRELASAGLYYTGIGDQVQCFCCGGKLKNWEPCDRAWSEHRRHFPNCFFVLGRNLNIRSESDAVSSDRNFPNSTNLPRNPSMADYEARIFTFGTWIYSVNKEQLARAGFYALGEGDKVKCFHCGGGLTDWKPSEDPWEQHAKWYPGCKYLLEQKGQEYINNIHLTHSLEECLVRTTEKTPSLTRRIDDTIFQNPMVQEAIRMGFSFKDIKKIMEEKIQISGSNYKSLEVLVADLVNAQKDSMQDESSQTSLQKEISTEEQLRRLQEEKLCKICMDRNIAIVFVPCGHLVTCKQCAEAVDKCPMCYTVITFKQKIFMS

Results are given in words; binding and its absence hold for the method and conditions named. In cells and extracts the contact can be indirect. Some entries that bind do so weakly or less than the wild type. For part of these data: Where a sequence is shown, tags or fusion partners need not be part of it.

B1: GST-ARTS fusion protein (protein, not shown: a dimerising Fc or GST)
chain: MIKRFLEDTTDDGELSKFVKDFSGNASCHPPEAKTWASRPQVPEPRPQAPDLYDDDLEFRPPSRPQSSDNQQYFCAPAPLSPSARPRSPWGKLDPYDSSEDDKEYVGFATLPNQVHRKSVKKGFDFTLMVAGESGLGKSTLVNSLFLTDLYRDRKLLGAEERIMQTVEITKHAVDIEEKGVRLRLTIVDTPGFGDAVNNTECWKPVAEYIDQQFEQYFRDESGLNRKNIQDNRVHCCLYFISPFGHGYGPSLRLLAPPGAVKGTGQEHQGQGCH
Take B1: the binding result in assay [1] and in assay [2] was “binds” each time.

B2: AU5-ARTS (other)
chain: MIKRFLEDTTDDGELSKFVKDFSGNASCHPPEAKTWASRPQVPEPRPQAPDLYDDDLEFRPPSRPQSSDNQQYFCAPAPLSPSARPRSPWGKLDPYDSSEDDKEYVGFATLPNQVHRKSVKKGFDFTLMVAGESGLGKSTLVNSLFLTDLYRDRKLLGAEERIMQTVEITKHAVDIEEKGVRLRLTIVDTPGFGDAVNNTECWKPVAEYIDQQFEQYFRDESGLNRKNIQDNRVHCCLYFISPFGHGYGPSLRLLAPPGAVKGTGQEHQGQGCH
notes: Expressed in transfected COS-7 cells and used as lysate or stained in cells; also called pEF1-AU5-ARTS; AU5-tagged ARTS; not shown: AU5 tag attached to the N' terminus of ARTS
In the case of B2, the binding result in assay [3] and in assay [4] was “binds” each time.

B3: Recombinant ARTS protein (TNT-Quick Coupled Transcription/Translation System) (protein)
chain: MIKRFLEDTTDDGELSKFVKDFSGNASCHPPEAKTWASRPQVPEPRPQAPDLYDDDLEFRPPSRPQSSDNQQYFCAPAPLSPSARPRSPWGKLDPYDSSEDDKEYVGFATLPNQVHRKSVKKGFDFTLMVAGESGLGKSTLVNSLFLTDLYRDRKLLGAEERIMQTVEITKHAVDIEEKGVRLRLTIVDTPGFGDAVNNTECWKPVAEYIDQQFEQYFRDESGLNRKNIQDNRVHCCLYFISPFGHGYGPSLRLLAPPGAVKGTGQEHQGQGCH
As to B3, the binding entry in assay [5] and in assay [6] was “binds” in each case.

For the origin of these results see patent publication US20050227302A1, “Induction of apoptosis via ARTS-IAP complexes” (priority 2004, published 2005).
